PubChem BioAssay AID1671195, Yale University, 2021
This is one part, drawn at random, of about 22,000 reagents. In the full data, about 1,510 (6.9%) were called active. 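Active includes knockdowns raising or lowering LDL uptake; positive z-scores mean more uptake, negative mean less.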

Screen: 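Knockdowns that increase or decrease uptake of fluorescent LDL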 (primary screen)
Cells: human Huh7 hepatoma cells
Knock-down reagent: siRNA pool against human genes, 18 nM
Duration: about 2 to 2.5 days of knockdown, then 8 h LDL uptake
Treatment: DiI-labelled LDL at 30 µg/ml for 8 h, in lipoprotein-deficient serum medium
Read-out: 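Per-cell DiI-LDL intensity by automated imaging; well means scaled to the plate median and given as a robust z-score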
Reading the numbers: robust z-score: higher = more LDL uptake after knockdown
Active means: 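a gene counts as active if at least two replicate z-scores exceed ±2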

Knock-down of LOC442125 (retired record) gave: robust z-score, replicate 1 = -0.0966; robust z-score, replicate 2 = -0.181; robust z-score, replicate 3 = 0.188; inactive.
For NNT, the values are robust z-score, replicate 1 = 1.57; robust z-score, replicate 2 = 0.755; robust z-score, replicate 3 = 0.918; inactive.
Silencing of LOC440845 (retired record) came out at: robust z-score, replicate 1 = 0.4; robust z-score, replicate 2 = 0.186; robust z-score, replicate 3 = 0.0763; inactive.
YARS2 gave robust z-score, replicate 1 = 0.531; robust z-score, replicate 2 = 0.251; robust z-score, replicate 3 = 0.107; inactive.
With knock-down of IRX1, the record shows robust z-score, replicate 1 = 0.33; robust z-score, replicate 2 = 0.473; robust z-score, replicate 3 = 0.76; inactive.
Silencing of CCDC163 gave: robust z-score, replicate 1 = 2.97; robust z-score, replicate 2 = 1.8; robust z-score, replicate 3 = 1.1; inactive.
With knock-down of PMFBP1, the screen gave robust z-score, replicate 1 = 2.37; robust z-score, replicate 2 = 2.02; robust z-score, replicate 3 = 2.58; active.
Against STAB2, the values are robust z-score, replicate 1 = 1.05; robust z-score, replicate 2 = 1.59; robust z-score, replicate 3 = 1.32; inactive.
After knock-down of LMO1, the record shows robust z-score, replicate 1 = 0.0111; robust z-score, replicate 2 = -0.17; robust z-score, replicate 3 = -0.141; inactive.
With knock-down of PRRC2B, the screen gave robust z-score, replicate 1 = 1.68; robust z-score, replicate 2 = 2.22; robust z-score, replicate 3 = 1.88; inactive.
For PSG5, the values are robust z-score, replicate 1 = 0.212; robust z-score, replicate 2 = 0.202; robust z-score, replicate 3 = 0.949; inactive.
Knock-down of UBTFL7 gave: robust z-score, replicate 1 = 0.512; robust z-score, replicate 2 = 1.01; robust z-score, replicate 3 = -0.717; inactive.

Part of the list above, reduced to “robust z-score, replicate 3”.
STAB2 = 1.32
LMO1 = -0.141
PRRC2B = 1.88
PSG5 = 0.949
UBTFL7 = -0.717

Continued.
Knock-down of ANGPTL6 gave: robust z-score, replicate 1 = -1.25; robust z-score, replicate 2 = -0.943; robust z-score, replicate 3 = -0.311; inactive.
ARMCX3 gave robust z-score, replicate 1 = -1.45; robust z-score, replicate 2 = -0.888; robust z-score, replicate 3 = -0.211; inactive.
RHOC showed robust z-score, replicate 1 = 0.538; robust z-score, replicate 2 = -1.11; robust z-score, replicate 3 = -1.17; inactive.
After knock-down of SOAT2 the results were robust z-score, replicate 1 = 0.0593; robust z-score, replicate 2 = 0.24; robust z-score, replicate 3 = 0.000668; inactive.
For WDR20, the values are robust z-score, replicate 1 = -0.197; robust z-score, replicate 2 = -0.74; robust z-score, replicate 3 = -0.285; inactive.
After knock-down of GP1BA, the screen gave robust z-score, replicate 1 = -0.968; robust z-score, replicate 2 = -0.791; robust z-score, replicate 3 = -0.44; inactive.
With knock-down of CEP192, the record shows robust z-score, replicate 1 = -0.741; robust z-score, replicate 2 = 1.3; robust z-score, replicate 3 = -0.113; inactive.
METTL21C scored robust z-score, replicate 1 = 1.67; robust z-score, replicate 2 = 1.38; robust z-score, replicate 3 = 0.371; inactive.
After knock-down of BPIFA1, the record shows robust z-score, replicate 1 = 1.62; robust z-score, replicate 2 = 0.953; robust z-score, replicate 3 = 2.07; inactive.
Depletion of STAG1 gave: robust z-score, replicate 1 = -2.58; robust z-score, replicate 2 = -1.35; robust z-score, replicate 3 = 0.227; inactive.
SPA17 showed robust z-score, replicate 1 = -0.391; robust z-score, replicate 2 = -1.29; robust z-score, replicate 3 = -0.272; inactive.
CRISP2 scored robust z-score, replicate 1 = 0.582; robust z-score, replicate 2 = 0.678; robust z-score, replicate 3 = 0.0978; inactive.
After knock-down of ADRM1, the record shows robust z-score, replicate 1 = 0.926; robust z-score, replicate 2 = 0.691; robust z-score, replicate 3 = 0.588; inactive.
After knock-down of CMSS1 the results were robust z-score, replicate 1 = -1.04; robust z-score, replicate 2 = -1.19; robust z-score, replicate 3 = -1.7; inactive.
NAPEPLD scored robust z-score, replicate 1 = -0.49; robust z-score, replicate 2 = -0.453; robust z-score, replicate 3 = -0.0362; inactive.
Against AFP the deposit lists robust z-score, replicate 1 = -0.0438; robust z-score, replicate 2 = -0.0583; robust z-score, replicate 3 = 0.154; inactive.
For LOC402326 (retired record), the values are robust z-score, replicate 1 = -0.791; robust z-score, replicate 2 = -0.292; robust z-score, replicate 3 = -0.577; inactive.
Against IFI27L2 the deposit lists robust z-score, replicate 1 = -0.982; robust z-score, replicate 2 = -1.21; robust z-score, replicate 3 = -0.385; inactive.
